Measurements reported in PubChem BioAssay AID504764 (Drosophila RNAi Screening Center, 2011).
The screen tested about 22,000 reagents; below is an unselected part of those with a known target gene and a result. Of all reagents, 403 (1.9%) are marked active. 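Unnormalised raw counts per well; ratio z-scores behind the hit calls and whether each hit raises or lowers signal are not deposited.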 Not given: the amount of reagent.

Screen: 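Genome-wide screen for regulators of Notch-driven gene expression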 (primary screen)
System: Drosophila Kc167 cells
Reagents: long dsRNA against Drosophila genes
Timing: about 5 days (4 days dsRNA, then 24 h after transfection)
Conditions: transfection of constitutively active membrane-tethered Notch lacking the extracellular domain, read 24 h later
Detection: 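Firefly luciferase from an E(spl)m3 reporter with active Notch, plus control-promoter and uninduced reporter wells for normalisation; unnormalised counts, duplicate wells a and b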
Reading the numbers: induced reporter light, run 1, well a and induced reporter light, run 1, well b: higher = more light from the Notch target reporter with active Notch; control promoter light, run 1, well a and control promoter light, run 1, well b: higher = more light from the viral control promoter (cell number, transfection, viability); uninduced reporter light, run 1, well a: higher = more light from the Notch target reporter without active Notch
Call rule: 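Hit if the duplicate-averaged log2 ratio of induced to control-promoter light gives a plate-wise z beyond ±2, or induced to uninduced beyond ±1.8; weak-control or discordant-duplicate wells dropped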
Calls: active = modifier hit (raised or lowered Notch signal); inactive = not a hit

| gene | DRSC id | induced reporter light, run 1, well a | induced reporter light, run 1, well b | control promoter light, run 1, well a | control promoter light, run 1, well b | uninduced reporter light, run 1, well a | activity call |
| --- | --- | --- | --- | --- | --- | --- | --- |
| spd-2 | DRSC09682 | 1.47e5 | 1.60e5 | 1.36e5 | 1.33e5 | 11100 | inactive |
| CG30151 | DRSC05888 | 23710 | 23800 | 25220 | 18500 | 4660 | inactive |
| Phb2 | DRSC06512 | 95180 | 69670 | 1.39e5 | 1.33e5 | 7445 | inactive |
| kibra | DRSC14533 | 2.64e5 | 2.80e5 | 2.61e5 | 2.93e5 | 21905 | inactive |
| kibra | DRSC16257 | 17228 | 18250 | 14660 | 13770 | 5130 | inactive |
| Glo1 | DRSC06657 | 2.33e5 | 2.33e5 | 2.93e5 | 2.87e5 | 18615 | inactive |
| GILT2 | DRSC14196 | 1.81e5 | 1.85e5 | 2.54e5 | 2.33e5 | 15810 | inactive |
| CG4617 | DRSC18377 | 1.66e5 | 1.32e5 | 1.87e5 | 1.88e5 | 9555 | inactive |
| fax | DRSC11345 | 1.04e5 | 94910 | 70025 | 81720 | 6875 | inactive |
| Cip4 | DRSC08091 | 2.64e5 | 2.44e5 | 1.88e5 | 2.15e5 | 13025 | inactive |
| Cip4 | DRSC08469 | 1.14e5 | 1.43e5 | 84390 | 26165 | 7510 | inactive |
| Cip4 | DRSC21740 | – | – | – | – | – | inactive |
| Gpat4 | DRSC04345 | 2.08e5 | 1.73e5 | 1.56e5 | 1.62e5 | 16060 | inactive |
| CG32170 | DRSC09452 | 1.61e5 | 1.36e5 | 2.58e5 | 2.81e5 | 15950 | inactive |
| CG11883 | DRSC06094 | 1.55e5 | 1.51e5 | 1.74e5 | 1.59e5 | 13400 | inactive |
| CG3356 | DRSC04358 | 1.98e5 | 1.83e5 | 1.55e5 | 1.76e5 | 13070 | inactive |

Next part; the last 4 above are carried over.
| gene | DRSC id | induced reporter light, run 1, well a | induced reporter light, run 1, well b | control promoter light, run 1, well a | control promoter light, run 1, well b | uninduced reporter light, run 1, well a | activity call |
| --- | --- | --- | --- | --- | --- | --- | --- |
| Gpat4 | DRSC04345 | 2.08e5 | 1.73e5 | 1.56e5 | 1.62e5 | 16060 | inactive |
| CG32170 | DRSC09452 | 1.61e5 | 1.36e5 | 2.58e5 | 2.81e5 | 15950 | inactive |
| CG11883 | DRSC06094 | 1.55e5 | 1.51e5 | 1.74e5 | 1.59e5 | 13400 | inactive |
| CG3356 | DRSC04358 | 1.98e5 | 1.83e5 | 1.55e5 | 1.76e5 | 13070 | inactive |
| CG10737 | DRSC05999 | 85635 | 97320 | 1.69e5 | 1.96e5 | 7778 | inactive |
| CG14695 | DRSC14918 | 73745 | 1.02e5 | 92535 | 80655 | 6495 | inactive |
| chn | DRSC06086 | 1.57e5 | 1.47e5 | 1.33e5 | 1.34e5 | 10945 | inactive |
| scny | DRSC10509 | 1.06e5 | 1.22e5 | 1.10e5 | 60565 | 13640 | inactive |
| scny | DRSC10510 | 40305 | 35415 | 47480 | 57020 | 7670 | inactive |
| Prosalpha4 | DRSC20271 | 70900 | 62720 | 76610 | 61590 | 7675 | inactive |
| Rab27 | DRSC18567 | 1.87e5 | 1.81e5 | 2.48e5 | 2.71e5 | 13410 | inactive |
| Top3beta | DRSC18724 | 2.18e5 | 1.81e5 | 1.82e5 | 1.59e5 | 15095 | inactive |
| Idh3b | DRSC16040 | 2.58e5 | 2.36e5 | 3.53e5 | 3.62e5 | 15270 | inactive |
| CG11980 | DRSC14456 | 47915 | 72345 | 46875 | 46205 | 5532 | inactive |
| sli | DRSC07684 | 68680 | 96390 | 1.23e5 | 88510 | 8350 | inactive |
| CLS | DRSC15642 | 1.75e5 | 1.67e5 | 2.29e5 | 2.06e5 | 14585 | inactive |
| GstO1 | DRSC10688 | 1.78e5 | 1.67e5 | 1.78e5 | 2.00e5 | 8255 | inactive |
| mdlc | DRSC15690 | 16915 | 16778 | 23835 | 26710 | 1335 | inactive |
| CG32727 | DRSC17519 | 79455 | 68010 | 75875 | 57800 | 4675 | inactive |
| ppk27 | DRSC08168 | 83855 | 85180 | 1.81e5 | 1.30e5 | 4565 | inactive |
| ppk20 | DRSC16260 | 7780 | 6600 | 12050 | 10418 | 532 | inactive |
| Pdh | DRSC11249 | 1.31e5 | 1.20e5 | 1.02e5 | 1.14e5 | 10135 | inactive |
